Laboratory results published in US9598395B2, “Premature-termination-codons readthrough compounds” (The Regents of the University of California, priority 2012, dated 2017).
Some results were stated once for a whole list of compounds, not compound by compound. For at least one compound, name, drawing or mass did not settle the structure.

Columns and labels:
A-T cells (AT153LA) [1] = conditions: previously published data, Du et al, 2009; cited from earlier work
A-T cells (AT153LA) [2] = experiment: Cytotoxicity by XTT assay (Assay E)
[3] = A-T cells (FIG. 33 and FIG. 30)
[4] = after four day treatment (FIG. 33)

Compound	concentration over which cytotoxic in A-T cells (A-T cells (AT153LA) [1])	cytotoxic concentration: no obvious cytotoxicity up to (A-T cells (AT153LA) [2]; [3]) [µM]	cytotoxic concentration: no obvious cytotoxicity up to (A-T cells (AT153LA) [2]; [4]) [µM]
N=C1NC(=O)/C(=C/c2ccc(-c3ccccc3[N+](=O)[O-])o2)S1 [RTC13]	over 100 μM	–	–
COc1cccc(-n2c(SCC(=O)Nc3ccc(F)cc3)nnc2-c2ccccn2)c1 [GJ072]	–	> 300	> 300
COc1cccc(-n2c(SCC(=O)Nc3ccncc3)nnc2-c2ccccn2)c1 [GJ105]	–	> 300	> 300
COc1cccc(-n2c(SCC(=O)Nc3ccc(O)cc3)nnc2-c2ccccn2)c1 [GJ106]	–	> 300	–
COc1cccc(-n2c(SCC(=O)Nc3ccccc3)nnc2-c2ccccn2)c1 [GJ104]	–	> 300	–
CC(C)(C)c1ccc(O)c(N=Cc2cccc([N+](=O)[O-])c2)c1 [RTC14]	over 100 μM	–	–
